The results in this text go back to paper doi:10.1101/2020.03.09.983338.

Amino acid sequences for entries named in this document (tags omitted).
UniProt Q9Y3Z3: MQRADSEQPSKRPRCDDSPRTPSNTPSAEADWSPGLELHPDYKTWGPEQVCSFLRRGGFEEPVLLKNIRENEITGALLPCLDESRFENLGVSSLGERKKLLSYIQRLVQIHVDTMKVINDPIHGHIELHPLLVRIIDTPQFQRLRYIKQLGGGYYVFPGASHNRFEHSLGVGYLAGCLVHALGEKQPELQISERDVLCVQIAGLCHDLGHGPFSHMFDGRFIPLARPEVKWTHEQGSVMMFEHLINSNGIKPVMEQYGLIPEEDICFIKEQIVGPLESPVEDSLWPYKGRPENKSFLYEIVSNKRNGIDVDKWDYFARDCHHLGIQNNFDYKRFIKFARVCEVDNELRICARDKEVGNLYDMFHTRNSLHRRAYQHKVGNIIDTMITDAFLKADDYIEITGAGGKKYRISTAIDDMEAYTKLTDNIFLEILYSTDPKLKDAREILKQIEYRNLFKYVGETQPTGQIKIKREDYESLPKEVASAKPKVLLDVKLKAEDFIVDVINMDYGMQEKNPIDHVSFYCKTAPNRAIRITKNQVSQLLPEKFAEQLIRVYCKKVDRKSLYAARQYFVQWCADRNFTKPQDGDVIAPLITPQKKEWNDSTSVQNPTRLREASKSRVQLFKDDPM

These are yes or no findings as the source states them, for the method shown. In cells and extracts the contact can be indirect. Some entries that bind do so weakly or less than the wild type. Where a sequence is shown, tags or fusion partners need not be part of it.

Test [1] has as its target T1, HA-OGT (O-GlcNAc transferase) (UniProt O15294).
T1 sequence: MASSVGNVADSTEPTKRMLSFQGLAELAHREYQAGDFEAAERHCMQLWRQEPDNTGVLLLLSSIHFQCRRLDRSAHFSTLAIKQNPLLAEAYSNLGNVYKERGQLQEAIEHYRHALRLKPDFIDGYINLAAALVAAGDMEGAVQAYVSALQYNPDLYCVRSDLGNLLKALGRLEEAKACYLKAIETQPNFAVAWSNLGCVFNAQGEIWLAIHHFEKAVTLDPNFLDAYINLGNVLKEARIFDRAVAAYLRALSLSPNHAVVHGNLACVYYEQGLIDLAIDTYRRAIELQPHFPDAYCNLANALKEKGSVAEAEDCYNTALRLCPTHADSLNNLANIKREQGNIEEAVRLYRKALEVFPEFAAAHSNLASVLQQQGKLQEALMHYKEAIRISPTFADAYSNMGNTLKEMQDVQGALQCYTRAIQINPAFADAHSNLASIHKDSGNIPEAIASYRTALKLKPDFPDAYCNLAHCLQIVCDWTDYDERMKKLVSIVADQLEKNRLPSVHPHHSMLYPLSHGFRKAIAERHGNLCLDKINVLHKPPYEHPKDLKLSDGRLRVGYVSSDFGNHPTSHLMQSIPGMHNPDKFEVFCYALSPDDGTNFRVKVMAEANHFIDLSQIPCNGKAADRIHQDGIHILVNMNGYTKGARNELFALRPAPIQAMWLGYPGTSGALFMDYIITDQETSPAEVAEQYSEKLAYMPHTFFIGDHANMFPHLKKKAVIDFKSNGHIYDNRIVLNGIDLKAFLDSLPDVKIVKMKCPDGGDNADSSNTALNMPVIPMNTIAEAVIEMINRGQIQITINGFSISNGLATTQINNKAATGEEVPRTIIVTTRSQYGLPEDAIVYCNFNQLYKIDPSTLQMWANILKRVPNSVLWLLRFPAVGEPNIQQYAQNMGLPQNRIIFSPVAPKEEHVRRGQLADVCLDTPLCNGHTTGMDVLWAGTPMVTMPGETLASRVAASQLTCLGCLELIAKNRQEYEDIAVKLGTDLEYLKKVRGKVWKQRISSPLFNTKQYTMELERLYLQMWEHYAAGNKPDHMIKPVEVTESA
Kind of test: co-IP.

Test [2] deals with HA-SAMHD1 (sterile alpha motif and histidine/aspartic acid domain-containing protein 1) (UniProt Q9Y3Z3). Description: co-IP.

Take Flag-SAMHD1 (from UniProt Q9Y3Z3 1-626): the binding entry in test [1] is given as “binds”.

B1: Flag-OGT (O-GlcNAc transferase) (enzyme, UniProt O15294 1-1046)
chain: MASSVGNVADSTEPTKRMLSFQGLAELAHREYQAGDFEAAERHCMQLWRQEPDNTGVLLLLSSIHFQCRRLDRSAHFSTLAIKQNPLLAEAYSNLGNVYKERGQLQEAIEHYRHALRLKPDFIDGYINLAAALVAAGDMEGAVQAYVSALQYNPDLYCVRSDLGNLLKALGRLEEAKACYLKAIETQPNFAVAWSNLGCVFNAQGEIWLAIHHFEKAVTLDPNFLDAYINLGNVLKEARIFDRAVAAYLRALSLSPNHAVVHGNLACVYYEQGLIDLAIDTYRRAIELQPHFPDAYCNLANALKEKGSVAEAEDCYNTALRLCPTHADSLNNLANIKREQGNIEEAVRLYRKALEVFPEFAAAHSNLASVLQQQGKLQEALMHYKEAIRISPTFADAYSNMGNTLKEMQDVQGALQCYTRAIQINPAFADAHSNLASIHKDSGNIPEAIASYRTALKLKPDFPDAYCNLAHCLQIVCDWTDYDERMKKLVSIVADQLEKNRLPSVHPHHSMLYPLSHGFRKAIAERHGNLCLDKINVLHKPPYEHPKDLKLSDGRLRVGYVSSDFGNHPTSHLMQSIPGMHNPDKFEVFCYALSPDDGTNFRVKVMAEANHFIDLSQIPCNGKAADRIHQDGIHILVNMNGYTKGARNELFALRPAPIQAMWLGYPGTSGALFMDYIITDQETSPAEVAEQYSEKLAYMPHTFFIGDHANMFPHLKKKAVIDFKSNGHIYDNRIVLNGIDLKAFLDSLPDVKIVKMKCPDGGDNADSSNTALNMPVIPMNTIAEAVIEMINRGQIQITINGFSISNGLATTQINNKAATGEEVPRTIIVTTRSQYGLPEDAIVYCNFNQLYKIDPSTLQMWANILKRVPNSVLWLLRFPAVGEPNIQQYAQNMGLPQNRIIFSPVAPKEEHVRRGQLADVCLDTPLCNGHTTGMDVLWAGTPMVTMPGETLASRVAASQLTCLGCLELIAKNRQEYEDIAVKLGTDLEYLKKVRGKVWKQRISSPLFNTKQYTMELERLYLQMWEHYAAGNKPDHMIKPVEVTESA
Turning to B1, in test [2], the binding entry is given as “binds”.
